From the supplement of paper PMC10849652
This is one part of the list. Residues, ends and D or L forms follow the SMILES beside them. *: point of attachment. Cbz = O=C(OCc1ccccc1)*

The chains behind the UniProt entries cited, without tags or fusion partners. Where a name states a change or a piece, a line headed by the entry shows the natural chain unless it says otherwise.
UniProt Q96DE0: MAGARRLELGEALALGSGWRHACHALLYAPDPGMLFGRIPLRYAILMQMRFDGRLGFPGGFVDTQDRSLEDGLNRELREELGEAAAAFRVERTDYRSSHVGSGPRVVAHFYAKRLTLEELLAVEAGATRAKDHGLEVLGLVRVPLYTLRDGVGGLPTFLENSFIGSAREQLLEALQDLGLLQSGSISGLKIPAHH
UniProt Q96BN8, whole entry, looked up: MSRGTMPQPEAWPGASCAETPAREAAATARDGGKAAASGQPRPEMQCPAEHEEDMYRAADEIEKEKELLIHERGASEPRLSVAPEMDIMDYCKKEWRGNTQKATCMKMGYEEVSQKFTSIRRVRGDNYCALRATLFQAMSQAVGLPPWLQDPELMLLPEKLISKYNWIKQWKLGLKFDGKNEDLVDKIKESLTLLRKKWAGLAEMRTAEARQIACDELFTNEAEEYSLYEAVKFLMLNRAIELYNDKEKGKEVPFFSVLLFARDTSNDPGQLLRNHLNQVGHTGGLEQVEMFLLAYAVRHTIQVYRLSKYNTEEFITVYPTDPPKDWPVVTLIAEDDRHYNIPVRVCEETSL
UniProt Q9UKX7: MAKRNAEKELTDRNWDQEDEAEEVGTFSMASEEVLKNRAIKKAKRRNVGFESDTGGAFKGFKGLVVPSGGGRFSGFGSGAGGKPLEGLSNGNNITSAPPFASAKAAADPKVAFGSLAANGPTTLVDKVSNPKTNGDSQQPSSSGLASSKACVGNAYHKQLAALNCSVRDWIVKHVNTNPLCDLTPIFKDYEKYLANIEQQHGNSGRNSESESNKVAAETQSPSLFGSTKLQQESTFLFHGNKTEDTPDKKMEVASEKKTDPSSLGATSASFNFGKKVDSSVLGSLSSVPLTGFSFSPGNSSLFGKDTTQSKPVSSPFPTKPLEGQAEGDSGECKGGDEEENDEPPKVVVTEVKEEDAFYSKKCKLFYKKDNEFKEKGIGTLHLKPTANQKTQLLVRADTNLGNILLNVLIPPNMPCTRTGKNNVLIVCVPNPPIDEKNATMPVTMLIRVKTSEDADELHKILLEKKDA
UniProt Q86UY8: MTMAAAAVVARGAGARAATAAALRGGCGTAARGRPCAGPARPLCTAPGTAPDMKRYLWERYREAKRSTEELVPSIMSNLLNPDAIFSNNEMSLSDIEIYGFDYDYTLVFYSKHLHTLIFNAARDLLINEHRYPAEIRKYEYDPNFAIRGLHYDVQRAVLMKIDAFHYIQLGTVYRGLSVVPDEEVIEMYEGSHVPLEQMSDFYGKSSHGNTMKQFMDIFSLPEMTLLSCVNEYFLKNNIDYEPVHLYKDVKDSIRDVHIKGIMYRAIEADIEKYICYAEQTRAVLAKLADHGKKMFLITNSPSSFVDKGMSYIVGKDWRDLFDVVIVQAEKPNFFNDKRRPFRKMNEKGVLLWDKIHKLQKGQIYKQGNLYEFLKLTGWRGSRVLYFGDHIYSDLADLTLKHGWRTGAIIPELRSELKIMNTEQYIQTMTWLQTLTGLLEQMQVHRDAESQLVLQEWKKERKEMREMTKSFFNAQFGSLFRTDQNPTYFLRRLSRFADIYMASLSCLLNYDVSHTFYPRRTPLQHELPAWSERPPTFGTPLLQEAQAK
UniProt Q96CB9: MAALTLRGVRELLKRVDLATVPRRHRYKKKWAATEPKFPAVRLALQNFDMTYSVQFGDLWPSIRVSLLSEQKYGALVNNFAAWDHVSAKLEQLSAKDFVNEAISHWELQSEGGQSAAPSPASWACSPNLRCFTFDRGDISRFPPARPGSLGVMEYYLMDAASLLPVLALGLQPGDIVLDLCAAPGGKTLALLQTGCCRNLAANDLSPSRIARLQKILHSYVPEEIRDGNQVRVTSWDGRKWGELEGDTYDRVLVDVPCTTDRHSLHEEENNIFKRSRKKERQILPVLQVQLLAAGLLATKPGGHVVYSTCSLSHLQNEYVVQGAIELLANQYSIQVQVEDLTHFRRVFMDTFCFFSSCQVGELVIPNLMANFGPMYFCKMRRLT
UniProt Q9BRJ7: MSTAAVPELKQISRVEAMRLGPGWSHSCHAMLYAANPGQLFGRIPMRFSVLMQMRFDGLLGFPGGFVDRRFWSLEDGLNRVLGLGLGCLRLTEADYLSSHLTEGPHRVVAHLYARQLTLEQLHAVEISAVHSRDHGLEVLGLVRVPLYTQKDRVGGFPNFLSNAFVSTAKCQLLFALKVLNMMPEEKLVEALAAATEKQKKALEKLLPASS
UniProt Q9H8K7: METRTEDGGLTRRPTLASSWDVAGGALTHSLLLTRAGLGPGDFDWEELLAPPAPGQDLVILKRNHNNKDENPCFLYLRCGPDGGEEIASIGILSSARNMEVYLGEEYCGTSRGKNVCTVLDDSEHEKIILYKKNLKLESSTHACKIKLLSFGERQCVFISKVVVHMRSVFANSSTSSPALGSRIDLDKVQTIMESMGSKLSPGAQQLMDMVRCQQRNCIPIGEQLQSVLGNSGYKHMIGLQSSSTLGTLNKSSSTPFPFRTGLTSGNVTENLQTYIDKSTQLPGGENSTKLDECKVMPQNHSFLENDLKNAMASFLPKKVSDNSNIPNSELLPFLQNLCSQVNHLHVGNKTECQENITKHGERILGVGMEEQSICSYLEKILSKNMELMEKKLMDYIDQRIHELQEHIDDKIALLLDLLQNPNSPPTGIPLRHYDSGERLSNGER
UniProt P49757: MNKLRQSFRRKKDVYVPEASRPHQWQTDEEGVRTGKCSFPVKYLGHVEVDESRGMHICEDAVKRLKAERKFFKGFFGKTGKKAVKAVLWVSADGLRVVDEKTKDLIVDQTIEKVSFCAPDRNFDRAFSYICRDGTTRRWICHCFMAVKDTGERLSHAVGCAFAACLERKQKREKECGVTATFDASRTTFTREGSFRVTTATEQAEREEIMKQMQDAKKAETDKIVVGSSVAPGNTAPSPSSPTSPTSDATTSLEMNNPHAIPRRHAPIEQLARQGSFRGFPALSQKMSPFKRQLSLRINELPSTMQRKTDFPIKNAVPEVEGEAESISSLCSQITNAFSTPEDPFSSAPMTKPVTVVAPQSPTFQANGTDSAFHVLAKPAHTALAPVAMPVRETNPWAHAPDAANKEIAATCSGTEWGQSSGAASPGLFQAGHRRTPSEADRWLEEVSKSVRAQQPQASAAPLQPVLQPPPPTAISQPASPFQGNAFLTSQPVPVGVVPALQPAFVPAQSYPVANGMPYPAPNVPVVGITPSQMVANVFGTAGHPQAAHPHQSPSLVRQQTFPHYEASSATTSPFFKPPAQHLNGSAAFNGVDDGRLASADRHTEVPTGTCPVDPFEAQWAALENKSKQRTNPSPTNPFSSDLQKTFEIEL
UniProt P52948: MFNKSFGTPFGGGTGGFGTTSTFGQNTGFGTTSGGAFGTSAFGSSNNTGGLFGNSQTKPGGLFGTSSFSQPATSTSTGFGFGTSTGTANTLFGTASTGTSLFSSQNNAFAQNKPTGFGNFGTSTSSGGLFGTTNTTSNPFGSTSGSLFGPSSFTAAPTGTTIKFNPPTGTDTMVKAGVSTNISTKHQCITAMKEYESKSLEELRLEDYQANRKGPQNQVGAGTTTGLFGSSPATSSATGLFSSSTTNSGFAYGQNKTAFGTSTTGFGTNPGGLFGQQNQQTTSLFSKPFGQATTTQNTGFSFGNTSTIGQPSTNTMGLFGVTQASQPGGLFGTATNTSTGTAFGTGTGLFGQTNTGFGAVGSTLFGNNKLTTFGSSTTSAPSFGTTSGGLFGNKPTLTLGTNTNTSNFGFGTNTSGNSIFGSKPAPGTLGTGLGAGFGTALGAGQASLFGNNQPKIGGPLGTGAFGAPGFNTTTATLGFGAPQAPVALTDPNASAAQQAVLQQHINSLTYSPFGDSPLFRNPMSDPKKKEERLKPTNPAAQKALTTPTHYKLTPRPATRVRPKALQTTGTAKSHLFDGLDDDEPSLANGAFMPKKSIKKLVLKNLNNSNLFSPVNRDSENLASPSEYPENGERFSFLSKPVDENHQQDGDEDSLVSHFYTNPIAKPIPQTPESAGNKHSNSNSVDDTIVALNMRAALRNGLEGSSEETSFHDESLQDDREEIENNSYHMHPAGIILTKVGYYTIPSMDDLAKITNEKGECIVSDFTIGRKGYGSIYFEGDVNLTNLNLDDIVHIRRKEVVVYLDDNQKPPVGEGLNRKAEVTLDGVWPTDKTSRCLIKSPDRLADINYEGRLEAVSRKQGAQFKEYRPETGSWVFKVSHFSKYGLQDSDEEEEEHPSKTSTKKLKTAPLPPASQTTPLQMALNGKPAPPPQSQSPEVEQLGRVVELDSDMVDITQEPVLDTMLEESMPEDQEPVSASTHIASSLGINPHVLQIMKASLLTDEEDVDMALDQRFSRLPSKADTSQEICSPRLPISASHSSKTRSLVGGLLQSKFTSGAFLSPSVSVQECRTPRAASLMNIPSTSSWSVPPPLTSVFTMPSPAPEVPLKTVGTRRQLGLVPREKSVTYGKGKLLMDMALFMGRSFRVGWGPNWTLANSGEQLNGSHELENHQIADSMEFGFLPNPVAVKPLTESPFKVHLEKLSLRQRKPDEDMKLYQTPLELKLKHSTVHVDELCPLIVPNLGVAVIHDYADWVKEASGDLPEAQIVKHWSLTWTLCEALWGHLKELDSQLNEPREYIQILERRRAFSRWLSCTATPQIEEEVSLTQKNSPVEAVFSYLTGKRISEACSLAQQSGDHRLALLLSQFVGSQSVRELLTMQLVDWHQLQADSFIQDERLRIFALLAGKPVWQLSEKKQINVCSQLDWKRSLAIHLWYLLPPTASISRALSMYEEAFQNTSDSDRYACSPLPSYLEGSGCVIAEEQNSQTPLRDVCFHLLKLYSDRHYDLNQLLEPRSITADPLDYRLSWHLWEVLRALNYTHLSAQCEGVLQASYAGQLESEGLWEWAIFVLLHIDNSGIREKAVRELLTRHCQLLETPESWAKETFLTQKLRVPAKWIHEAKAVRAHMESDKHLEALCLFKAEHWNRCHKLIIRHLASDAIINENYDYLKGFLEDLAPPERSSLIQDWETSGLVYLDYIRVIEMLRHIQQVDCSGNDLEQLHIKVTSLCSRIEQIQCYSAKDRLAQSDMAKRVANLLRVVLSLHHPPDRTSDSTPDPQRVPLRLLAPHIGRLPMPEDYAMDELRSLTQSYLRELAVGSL
UniProt Q96MF7: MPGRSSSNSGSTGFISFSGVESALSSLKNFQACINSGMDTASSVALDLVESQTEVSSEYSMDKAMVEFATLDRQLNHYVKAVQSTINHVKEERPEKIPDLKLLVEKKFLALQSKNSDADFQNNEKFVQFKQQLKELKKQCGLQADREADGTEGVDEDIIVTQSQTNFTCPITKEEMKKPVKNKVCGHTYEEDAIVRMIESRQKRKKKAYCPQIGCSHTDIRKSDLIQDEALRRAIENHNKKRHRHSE
UniProt O60502: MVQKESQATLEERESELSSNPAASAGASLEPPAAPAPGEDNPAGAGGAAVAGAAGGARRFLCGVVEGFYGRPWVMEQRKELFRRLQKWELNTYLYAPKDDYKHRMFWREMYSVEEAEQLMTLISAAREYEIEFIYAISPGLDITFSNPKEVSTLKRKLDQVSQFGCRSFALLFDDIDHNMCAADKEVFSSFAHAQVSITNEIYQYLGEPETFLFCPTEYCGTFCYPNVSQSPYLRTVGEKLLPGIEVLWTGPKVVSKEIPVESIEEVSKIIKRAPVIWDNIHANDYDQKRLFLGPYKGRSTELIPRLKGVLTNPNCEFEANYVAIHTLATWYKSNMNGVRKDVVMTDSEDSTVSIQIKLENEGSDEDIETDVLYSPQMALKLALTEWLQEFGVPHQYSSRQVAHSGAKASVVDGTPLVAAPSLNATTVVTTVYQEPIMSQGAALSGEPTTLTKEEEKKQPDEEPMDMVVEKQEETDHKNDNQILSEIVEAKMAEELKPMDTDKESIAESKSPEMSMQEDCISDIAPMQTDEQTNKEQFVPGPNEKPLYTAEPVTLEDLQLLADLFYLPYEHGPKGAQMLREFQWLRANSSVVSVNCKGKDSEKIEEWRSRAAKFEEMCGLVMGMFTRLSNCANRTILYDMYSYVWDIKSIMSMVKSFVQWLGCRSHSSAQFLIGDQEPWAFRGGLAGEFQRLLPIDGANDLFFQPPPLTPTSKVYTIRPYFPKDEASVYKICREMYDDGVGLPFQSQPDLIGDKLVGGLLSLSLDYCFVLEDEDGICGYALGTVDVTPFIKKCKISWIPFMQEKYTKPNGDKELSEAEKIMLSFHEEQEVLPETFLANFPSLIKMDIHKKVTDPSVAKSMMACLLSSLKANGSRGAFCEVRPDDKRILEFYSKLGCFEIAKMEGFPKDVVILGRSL

Legend:
Test in all cases: log2 fold change, soluble protein after heating vs DMSO (PISA); higher = thermal stabilisation; K562 cells, 10 uM, 30 min; active = over 0.2 and 3.5 SD of the protein, either way, in both replicates (recomputed)
IRAK-1-4 Inhibitor I = compound: C1COCCN1CCN2C3=CC=CC=C3N=C2NC(=O)C4=CC(=CC=C4)[N+](=O)[O-] [IRAK-1-4 Inhibitor I]
Outline: (§1)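 Values are thermal stability changes relative to control samples and are taken from duplicates. They are stated as log2 fold changes. Before quantification by TMTpro 16plex LC-MS/MS with equalised channel sums, K562 cells at 2×10^6 cells/mL were treated with 10 μM compound for 30 min, heated in aliquots for 3 min across 48°C-58°C, pooled, extracted in PBS with 0.5% NP-40 at 4°C, and centrifuged at 21,000xg for 90 min to give the soluble supernatant.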

ibrutinib = compound: C=CC(=O)N1CCC[C@@H](n2nc(-c3ccc(Oc4ccccc4)cc3)c3c(N)ncnc32)C1 [ibrutinib]
Outline: as §1

[1] = compound: CC(=O)c1cnc2ccc(-c3cc(Cl)c(O)c(Cl)c3)nc2c1N[C@H]1CC[C@H](CN(C)C)CC1
Outline: as §1

ralimetinib = compound: CC(C)(C)Cn1c(N)nc2ccc(-c3[nH]c(C(C)(C)C)nc3-c3ccc(F)cc3)nc21 [ralimetinib]
Outline: as §1

[2] = compound: CC(C)(O)CC(=O)NCCn1ccc2ncnc(Nc3ccc(Oc4cccc(C(F)(F)F)c4)c(Cl)c3)c21
Outline: as §1

[3] = compound: CC(C)C1=C2N=C(C=C(N2N=C1)NCC3=CC=CC=C3)NCCCCCCN
Outline: as §1

[4] = compound: CC(C)C[C@@H](C=O)NC(=O)[C@H](CC(C)C)NC(=O)[C@H](CC(C)C)NC(=O)OCc1ccccc1
Outline: as §1

pinometostat = compound: CC(C)N(C[C@H]1O[C@@H](n2cnc3c(N)ncnc32)[C@H](O)[C@@H]1O)[C@H]1C[C@@H](CCc2nc3cc(C(C)(C)C)ccc3[nH]2)C1 [pinometostat]
Outline: as §1

[5] = compound: CC1=C(C2=C(C=C1)C(=O)C3=CC=CC=C3N2CCCN)C
Outline: as §1

[6] = compound: CC1=C(C=C(C=C1)NC(=O)C2=CC(=CC=C2)C(C)(C)C#N)NC3=CC4=C(C=C3)N=CN(C4=O)C
Outline: as §1

[7] = compound: CC1=C(C=C(C=C1)NC(=O)C2=CC(=CC=C2)N(C)C)NC(=O)C3=CC=C(C=C3)O
Outline: as §1

[8] = compound: CC1=CC=C(C=C1)SC2=C3C=C(SC3=CN=C2)C(=O)N
Outline: as §1

[9] = compound: CC1=NC(=CC=C1)C2=C(N=C(N2)C(C)(C)C)C3=CC4=NC=CN=C4C=C3
Outline: as §1

Nexturastat A = compound: CCCCN(Cc1ccc(C(=O)NO)cc1)C(=O)Nc1ccccc1 [Nexturastat A]
Outline: as §1

vemurafenib = compound: CCCS(=O)(=O)Nc1ccc(F)c(C(=O)c2c[nH]c3ncc(-c4ccc(Cl)cc4)cc23)c1F [vemurafenib]
Outline: as §1

[10] = compound: CCCS(=O)(=O)Nc1ccc(F)c(C(=O)c2c[nH]c3ncc(Cl)cc23)c1F
Outline: as §1

[11] = compound: CCCc1cc(C)[nH]c(=O)c1CNC(=O)c1cc(-c2ccnc(N3CCN(C)CC3)c2)cc2c1cnn2C(C)C
Outline: as §1

givinostat = compound: CCN(CC)Cc1ccc2cc(COC(=O)Nc3ccc(C(=O)NO)cc3)ccc2c1 [givinostat]
Outline: as §1

barasertib = compound: CCN(CCCOc1ccc2c(Nc3cc(CC(=O)Nc4cccc(F)c4)[nH]n3)ncnc2c1)CCOP(=O)(O)O [barasertib]
Outline: as §1

[12] = compound: CC1=C(C(CC(=O)N1)C2=CC=C(C=C2)C(F)(F)F)C(=O)NC3=C(C=C4C(=C3)C=NN4)F
Outline: as §1

Measured: log2 fold change

NUDT16 (UniProt Q96DE0)
inactive: IRAK-1-4 Inhibitor I 0.049 | ibrutinib 0.03 | [1] 0.022 | ralimetinib -0.039 | [2] 0.005 | [3] 0.066 | [4] -0.001 | pinometostat -0.001 | [5] 0.004 | [6] -0.031 | [7] -0.005 | [8] -0.008 | [9] -0.03 | Nexturastat A -0.003 | vemurafenib 0.163 | [10] 0.019 | [11] -0.041 | givinostat -0.006 | barasertib 0.028

OTULIN (UniProt Q96BN8)
active: [3] -0.362
inactive: IRAK-1-4 Inhibitor I 0.021 | ibrutinib -0.025 | [1] -0.003 | ralimetinib -0.01 | [2] -0.059 | [4] 0.024 | pinometostat 0.034 | [5] 0.008 | [6] 0.03 | [7] 0.002 | [8] 0.035 | [9] 0.015 | Nexturastat A -0.17 | vemurafenib -0.023 | [10] 0.171 | [11] -0.018 | givinostat 0.039 | barasertib 0.105

NUP210 (UniProt Q8TEM1)
active: [3] -0.52
inactive: IRAK-1-4 Inhibitor I 0.005 | ibrutinib -0.025 | [1] -0.038 | ralimetinib -0.069 | [2] -0.176 | [4] -0.007 | pinometostat 0.001 | [5] 0.047 | [6] -0.029 | [7] 0.052 | [8] 0.084 | [9] 0.035 | Nexturastat A -0.08 | vemurafenib -0.002 | [10] 0.058 | [11] -0.05 | givinostat -0.017 | barasertib 0.029

Quoted at random: two records from the list, in no set order.
NUP210 (UniProt Q8TEM1)
active: [3] -0.52
inactive: IRAK-1-4 Inhibitor I 0.005 | ibrutinib -0.025 | [1] -0.038 | ralimetinib -0.069 | [2] -0.176 | [4] -0.007 | pinometostat 0.001 | [5] 0.047 | [6] -0.029 | [7] 0.052 | [8] 0.084 | [9] 0.035 | Nexturastat A -0.08 | vemurafenib -0.002 | [10] 0.058 | [11] -0.05 | givinostat -0.017 | barasertib 0.029

OTULIN (UniProt Q96BN8)
active: [3] -0.362
inactive: IRAK-1-4 Inhibitor I 0.021 | ibrutinib -0.025 | [1] -0.003 | ralimetinib -0.01 | [2] -0.059 | [4] 0.024 | pinometostat 0.034 | [5] 0.008 | [6] 0.03 | [7] 0.002 | [8] 0.035 | [9] 0.015 | Nexturastat A -0.17 | vemurafenib -0.023 | [10] 0.171 | [11] -0.018 | givinostat 0.039 | barasertib 0.105

Continuation.

OXA1L (UniProt Q15070)
inactive: IRAK-1-4 Inhibitor I 0.05 | ibrutinib 0.011 | [1] 0.03 | ralimetinib -0.037 | [2] 0.006 | [3] -0.209 | [4] -0.004 | pinometostat 0 | [5] -0.018 | [6] -0.013 | [7] 0.01 | [8] 0.02 | [9] 0.01 | Nexturastat A -0.021 | vemurafenib 0.022 | [10] -0.013 | [11] -0.049 | givinostat 0.003 | barasertib -0.012

NUP50 (UniProt Q9UKX7)
inactive: IRAK-1-4 Inhibitor I 0.048 | ibrutinib 0.029 | [1] -0.005 | ralimetinib -0.019 | [2] 0.004 | [3] 0.07 | [4] 0.059 | pinometostat -0.025 | [12] 0.023 | [5] -0.073 | [6] -0.001 | [7] -0.005 | [8] -0.01 | [9] 0.009 | Nexturastat A -0.057 | vemurafenib -0.003 | [10] -0.023 | [11] -0.103 | givinostat 0.003 | barasertib -0.019

NT5DC3 (UniProt Q86UY8)
inactive: IRAK-1-4 Inhibitor I -0.032 | ibrutinib 0.023 | [1] -0.015 | ralimetinib -0.022 | [2] -0.067 | [3] 0.052 | [4] -0.014 | pinometostat -0.032 | [12] -0.015 | [5] 0.002 | [6] -0.017 | [7] -0.006 | [8] -0.022 | [9] 0.039 | Nexturastat A -0.06 | vemurafenib -0.045 | [10] -0.027 | [11] 0.009 | givinostat 0.007 | barasertib 0.014

NSUN4 (UniProt Q96CB9)
inactive: IRAK-1-4 Inhibitor I -0.07 | ibrutinib 0.039 | [1] -0.012 | ralimetinib 0.088 | [2] -0.041 | [3] -0.029 | [4] 0.023 | pinometostat 0.024 | [12] 0.15 | [5] -0.012 | [6] 0.063 | [7] -0.008 | [8] -0.086 | [9] -0.099 | Nexturastat A 0.095 | vemurafenib 0.047 | [10] 0.04 | [11] 0.001 | givinostat -0.18 | barasertib -0.038

NUDT16L1 (UniProt Q9BRJ7)
inactive: IRAK-1-4 Inhibitor I 0.003 | ibrutinib 0.039 | [1] -0.004 | ralimetinib 0.037 | [2] -0.037 | [3] 0.026 | [4] -0.022 | pinometostat -0.059 | [12] 0.049 | [5] 0.156 | [6] -0.02 | [7] -0.012 | [8] 0 | [9] 0.048 | Nexturastat A -0.116 | vemurafenib 0.001 | [10] -0.008 | [11] -0.051 | givinostat -0.058 | barasertib 0

PAAT (UniProt Q9H8K7)
inactive: IRAK-1-4 Inhibitor I 0.058 | ibrutinib -0.092 | [1] 0.063 | ralimetinib -0.001 | [2] 0.07 | [3] 0.041 | [4] 0.032 | pinometostat -0.074 | [12] -0.108 | [5] 0.004 | [6] -0.071 | [7] -0.022 | [8] -0.011 | [9] 0.008 | Nexturastat A -0.002 | vemurafenib -0.007 | [10] 0.061 | [11] -0.351 | givinostat -0.043 | barasertib 0.111

OAT (UniProt P04181)
inactive: IRAK-1-4 Inhibitor I 0.044 | ibrutinib -0.006 | [1] -0.044 | ralimetinib -0.053 | [2] -0.113 | [4] 0.007 | pinometostat -0.027 | [5] -0.007 | [6] 0.087 | [7] 0.014 | [8] 0.02 | [9] 0.042 | Nexturastat A -0.01 | vemurafenib 0.011 | [10] -0.023 | [11] -0.011 | givinostat 0.045 | barasertib 0.061
active: [3] -0.245

NUMB (UniProt P49757)
active: [1] -0.318
inactive: IRAK-1-4 Inhibitor I 0.008 | ibrutinib -0.05 | ralimetinib 0.049 | [2] -0.062 | [3] -0.086 | [4] 0.053 | pinometostat 0.061 | [5] 0.079 | [6] -0.006 | [7] 0.018 | [8] -0.067 | [9] -0.046 | Nexturastat A 0.09 | vemurafenib 0.026 | [10] -0.002 | [11] 0.004 | givinostat 0.02 | barasertib -0.01

OCIAD1 (UniProt D6RDK6)
inactive: IRAK-1-4 Inhibitor I -0.05 | ibrutinib -0.148 | [1] -0.165 | ralimetinib -0.284 | [2] 0.03 | [3] -0.056 | [4] 0.079 | pinometostat -0.021 | [5] 0.047 | [6] 0.037 | [7] 0.011 | [8] -0.121 | [9] -0.017 | Nexturastat A -0.158 | vemurafenib -0.031 | [10] -0.171 | [11] -0.633 | givinostat 0.087 | barasertib 0.05

NUP98 (UniProt P52948)
inactive: IRAK-1-4 Inhibitor I -0.021 | ibrutinib -0.048 | [1] -0.146 | ralimetinib 0.04 | [2] 0 | [3] -0.071 | [4] 0.041 | pinometostat 0.03 | [5] 0.013 | [6] -0.042 | [7] 0.064 | [8] -0.003 | [9] 0.031 | Nexturastat A 0.061 | vemurafenib 0.037 | [10] 0.068 | [11] 0.036 | givinostat 0.081 | barasertib 0.037

NSMCE2 (UniProt Q96MF7)
inactive: IRAK-1-4 Inhibitor I -0.023 | ibrutinib -0.171 | [1] -0.107 | ralimetinib 0.176 | [2] 0.051 | [3] 0.122 | [4] -0.083 | pinometostat -0.001 | [5] -0.122 | [6] 0.019 | [7] -0.052 | [8] 0.006 | [9] 0.056 | Nexturastat A 0.064 | vemurafenib -0.007 | [10] 0.021 | [11] 0.018 | givinostat -0.076 | barasertib 0.078

NSUN7 (UniProt Q8NE18)
inactive: IRAK-1-4 Inhibitor I -0.034 | ibrutinib -0.084 | [1] -0.105 | ralimetinib -0.272 | [2] 0.032 | [3] -0.137 | [4] 0.08 | pinometostat 0.022 | [12] 0.054 | [5] 0.043 | [7] 0.008 | [8] -0.252 | [9] -0.112 | Nexturastat A -0.031 | vemurafenib -0.158 | [10] -0.508 | [11] -0.182 | givinostat 0.048 | barasertib -0.053

OGA (UniProt O60502)
inactive: IRAK-1-4 Inhibitor I 0.039 | ibrutinib -0.03 | [1] -0.023 | ralimetinib -0.06 | [2] -0.023 | [3] -0.018 | [4] 0.003 | pinometostat -0.022 | [12] 0.011 | [5] 0.033 | [6] -0.032 | [7] -0.002 | [8] 0.005 | [9] 0.044 | Nexturastat A -0.034 | vemurafenib -0.009 | [10] -0.002 | [11] -0.062 | givinostat -0.06 | barasertib 0.012
